# The list shows a part of the results.
# Legend:
# Assay in all cases: glycan array binding signal (z-score within array); higher = stronger binding
# Conditions in all cases: glycan notation: IUPAC condensed, linker removed
# [1] = biological target: Gal(b1-4)GlcNAc(a1-6)Gal(b1-4)GlcNAc
# Outline: (§1)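 Glycan array binding is given as a within-array Z-score, which can be read as non-binding when negative. The arrays, 3228 of them, came from the Consortium for Functional Glycomics database and were retained only where the protein sequence was available. Z-scores were averaged across arrays of the same protein sequence at different concentrations or buffers and across linkers.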
# [2] = biological target: Gal(b1-4)GlcNAc(b1-2)Man(a1-3)Man(b1-4)GlcNAc(b1-4)GlcNAc
# Outline: as §1
# [3] = biological target: Gal(b1-4)GlcNAc(b1-2)Man(a1-3)[Gal(b1-4)GlcNAc(b1-2)Man(a1-6)]Man(b1-4)GlcNAc(b1-4)GlcNAc
# Outline: as §1
# [4] = biological target: Gal(b1-4)GlcNAc(b1-2)Man(a1-3)[Gal(b1-4)GlcNAc(b1-2)Man(a1-6)]Man(b1-4)GlcNAc(b1-4)[Fuc(a1-6)]GlcNAc
# Outline: as §1
# [5] = biological target: Gal(b1-4)GlcNAc(b1-2)Man(a1-3)[GlcNAc(b1-2)Man(a1-6)]Man(b1-4)GlcNAc(b1-4)GlcNAc
# Outline: as §1
# [6] = biological target: Gal(b1-4)GlcNAc(b1-2)Man(a1-3)[Man(a1-6)]Man(b1-4)GlcNAc(b1-4)GlcNAc
# Outline: as §1
# [7] = biological target: Gal(b1-4)GlcNAc(b1-2)Man(a1-6)Man(b1-4)GlcNAc(b1-4)GlcNAc
# Outline: as §1
# [8] = biological target: Gal(b1-4)GlcNAc(b1-2)Man(a1-6)[GlcNAc(b1-2)Man(a1-3)]Man(b1-4)GlcNAc(b1-4)GlcNAc
# Outline: as §1
# [9] = biological target: Gal(b1-4)GlcNAc(b1-2)Man(a1-6)[Man(a1-3)]Man(b1-4)GlcNAc(b1-4)GlcNAc
# Outline: as §1
# [10] = biological target: Gal(b1-4)GlcNAc(b1-2)[Gal(b1-4)GlcNAc(b1-4)]Man(a1-3)[Gal(b1-4)GlcNAc(b1-2)Man(a1-6)]Man(b1-4)GlcNAc(b1-4)GlcNAc
# Outline: as §1
# [11] = biological target: Gal(b1-4)GlcNAc(b1-2)[Gal(b1-4)GlcNAc(b1-4)]Man(a1-3)[Gal(b1-4)GlcNAc(b1-2)[Gal(b1-4)GlcNAc(b1-6)]Man(a1-6)]Man(b1-4)GlcNAc(b1-4)GlcNAc
# Outline: as §1
# [12] = biological target: Gal(b1-4)GlcNAc(b1-3)Gal(b1-3)GlcNAc
# Outline: as §1
# [13] = biological target: Gal(b1-4)GlcNAc(b1-3)Gal(b1-4)Glc
# Outline: as §1
# [14] = biological target: Gal(b1-4)GlcNAc(b1-3)Gal(b1-4)GlcNAc
# Outline: as §1
# [15] = biological target: Gal(b1-4)GlcNAc(b1-3)Gal(b1-4)GlcNAc(b1-3)Gal(b1-4)GlcNAc
# Outline: as §1
# [16] = biological target: Gal(b1-4)GlcNAc(b1-3)Gal(b1-4)[Fuc(a1-3)]GlcNAc(b1-3)Gal(b1-4)[Fuc(a1-3)]GlcNAc
# Outline: as §1
# [17] = biological target: Gal(b1-4)GlcNAc(b1-3)GalNAc
# Outline: as §1
# [18] = biological target: Gal(b1-4)GlcNAc(b1-3)[Gal(b1-4)GlcNAc(b1-6)]Gal(b1-4)GlcNAc
# Outline: as §1
# [19] = biological target: Gal(b1-4)GlcNAc(b1-3)[Gal(b1-4)GlcNAc(b1-6)]GalNAc
# Outline: as §1
# [20] = biological target: Gal(b1-4)GlcNAc(b1-3)[GlcNAc(b1-6)]Gal(b1-4)GlcNAc
# Outline: as §1
# [21] = biological target: Gal(b1-4)GlcNAc(b1-6)Gal(b1-4)GlcNAc
# Outline: as §1
# [22] = biological target: Gal(b1-4)GlcNAc(b1-6)GalNAc
# Outline: as §1
# [23] = biological target: Gal(b1-4)GlcNAc(b1-6)[Gal(b1-3)]GalNAc
# Outline: as §1
# [24] = biological target: Gal3S(b1-3)GalNAc
# Outline: as §1
# [25] = biological target: Gal3S(b1-3)GlcNAc
# Outline: as §1
# [26] = biological target: Gal3S(b1-3)[Fuc(a1-4)]GlcNAc
# Outline: as §1
# [27] = biological target: Gal3S(b1-4)Glc
# Outline: as §1
# [28] = biological target: Gal3S(b1-4)Glc6S
# Outline: as §1
# [29] = biological target: Gal3S(b1-4)GlcNAc
# Outline: as §1
# [30] = biological target: Gal3S(b1-4)GlcNAc6S
# Outline: as §1
# [31] = biological target: Gal3S(b1-4)[Fuc(a1-3)]Glc
# Outline: as §1
# [32] = biological target: Gal3S(b1-4)[Fuc(a1-3)]Glc6S
# Outline: as §1
# [33] = biological target: Gal3S4S(b1-4)GlcNAc
# Outline: as §1
# [34] = biological target: Gal3S6S(b1-4)GlcNAc
# Outline: as §1
# [35] = biological target: Gal3S6S(b1-4)GlcNAc6S
# Outline: as §1
# [36] = biological target: Gal4S(b1-4)GlcNAc
# Outline: as §1
# [37] = biological target: Gal4S6S(b1-4)GlcNAc
# Outline: as §1
# [38] = biological target: Gal6S(b1-4)Glc
# Outline: as §1
# [39] = biological target: Gal6S(b1-4)Glc6S
# Outline: as §1
# [40] = biological target: Gal6S(b1-4)GlcNAc
# Outline: as §1
# [41] = biological target: Gal6S(b1-4)GlcNAc6S
# Outline: as §1
# [42] = biological target: GalNAc(a1-3)Gal
# Outline: as §1
# [43] = biological target: GalNAc(a1-3)GalNAc
# Outline: as §1
# [44] = biological target: GalNAc(a1-3)GalNAc(a1-3)Gal(a1-4)Gal(b1-4)GlcNAc
# Outline: as §1
# [45] = biological target: GalNAc(b1-3)Gal
# Outline: as §1
# [46] = biological target: GalNAc(b1-3)Gal(a1-4)Gal(b1-4)GlcNAc
# Outline: as §1
# [47] = biological target: GalNAc(b1-3)Gal(a1-4)Gal(b1-4)GlcNAc(b1-3)Gal(b1-4)Glc
# Outline: as §1
# [48] = biological target: GalNAc(b1-3)Gal(a1-6)Gal(b1-4)Glc
# Outline: as §1
# [49] = biological target: GalNAc(b1-3)GalNAc
# Outline: as §1
# [50] = biological target: GalNAc(b1-4)GlcNAc
# Outline: as §1
# [51] = biological target: GalNAc(b1-4)GlcNAc(b1-2)Man(a1-3)[GalNAc(b1-4)GlcNAc(b1-2)Man(a1-6)]Man(b1-4)GlcNAc(b1-4)GlcNAc
# Outline: as §1
# [52] = biological target: Glc(a1-4)Glc
# Outline: as §1
# [53] = biological target: Glc(a1-6)Glc(a1-6)Glc
# Outline: as §1
# [54] = biological target: Glc(b1-4)Glc
# Outline: as §1
# [55] = biological target: Glc(b1-6)Glc
# Outline: as §1
# [56] = biological target: GlcA(b1-3)Gal
# Outline: as §1
# [57] = biological target: GlcA(b1-3)GlcNAc
# Outline: as §1
# [58] = biological target: GlcA(b1-6)Gal
# Outline: as §1
# [59] = biological target: GlcNAc(a1-3)Gal(b1-4)GlcNAc
# Outline: as §1
# [60] = biological target: GlcNAc(a1-4)Gal(b1-3)GlcNAc
# Outline: as §1
binder,measurement,setting,value
"MIC2 (Toxoplasma gondii), S8F9G8 (protein) MRLQREAVFGLMFACGMWMWPSEVAGGGWSIVDALRKRYDTSRGGDANGVDTSGVEDVIQSESAIGAAEGCTNQLDICFLIDSSGSIGIQNFRLVKQFLHTFLMVLPIGPEEVNNAVVTYSTDVHLQWDLQSPNAVDKQLAAHAVLDMPYKKGSTNTSDGLKACKQILFTGSRPGREHVPKLVIGMTDGESDSDFRTVRAAKEIRELGGIVTVLAVGHYVKHSECRSMCGCSGTSDDDSPCPLYLRADWGQLATAIKPMLKEVCKTLPQDAICSDWSAWSPCSVSCGDGSQIRTRTEVSAPQPGTPTCPDCPAPMGRTCVEQGGLEEIRECSAGVCAVDAGCGVWGEWSAWSASCGNATRKRERTRYNDPPPQGAGRRCENQDPPVLQEQTEEATLAPCITIPPTPPEWAAWSDCTVTCGGGNRHRVRNALPPGLGSQNGESDESLVSKLWPGTDLRQEEACNTSPCPINATCGQFEEWSTCSVSCGGGLKTRSRNPWNEDQQHGGLSCEQQHPGGRTETITCNPQACPVDERPGEWAEWGECSVTCGDGVRERRRGKSLVEAKFGGRTIDQQNEALPEDLKIKNVEYEPCSYPACGASCTYVWSDWNKCVCPMGYQARHAAVKFDYRNKPCDLPTFETKACSCGETNPVPSEGTTPGAPGATGPEQPNQRPLPEGSDENETPTNEEGEQSKKESGSGIAGAIAGGVIGGLILLGAAGGASYHYYLSSSVGSPSAEIEYEADDGATKVVMEEEKETLVPVDDDSDMWME",glycan array binding signal (z-score),[1],-0.72
same,glycan array binding signal (z-score),[2],-0.709
same,glycan array binding signal (z-score),[3],0.515
same,glycan array binding signal (z-score),[4],1.15
same,glycan array binding signal (z-score),[5],-0.592
same,glycan array binding signal (z-score),[6],-0.176
same,glycan array binding signal (z-score),[7],0.352
same,glycan array binding signal (z-score),[8],-0.816
same,glycan array binding signal (z-score),[9],0.017
same,glycan array binding signal (z-score),[10],-0.051
same,glycan array binding signal (z-score),[11],-0.849
same,glycan array binding signal (z-score),[12],-0.848
same,glycan array binding signal (z-score),[13],0.224
same,glycan array binding signal (z-score),[14],0.542
same,glycan array binding signal (z-score),[15],-0.169
same,glycan array binding signal (z-score),[16],-0.501
same,glycan array binding signal (z-score),[17],-0.345
same,glycan array binding signal (z-score),[18],-0.785
same,glycan array binding signal (z-score),[19],-0.129
same,glycan array binding signal (z-score),[20],-0.941
same,glycan array binding signal (z-score),[21],0.294
same,glycan array binding signal (z-score),[22],-0.624
same,glycan array binding signal (z-score),[23],0.853
same,glycan array binding signal (z-score),[24],-0.688
same,glycan array binding signal (z-score),[25],-0.484
same,glycan array binding signal (z-score),[26],-0.555
same,glycan array binding signal (z-score),[27],0.547
same,glycan array binding signal (z-score),[28],0.756
same,glycan array binding signal (z-score),[29],1.89
same,glycan array binding signal (z-score),[30],2.66
same,glycan array binding signal (z-score),[31],0.795
same,glycan array binding signal (z-score),[32],4.19
same,glycan array binding signal (z-score),[33],3.35
same,glycan array binding signal (z-score),[34],2.02
same,glycan array binding signal (z-score),[35],3.06
same,glycan array binding signal (z-score),[36],-0.874
same,glycan array binding signal (z-score),[37],2.56
same,glycan array binding signal (z-score),[38],-0.567
same,glycan array binding signal (z-score),[39],1.99
same,glycan array binding signal (z-score),[40],-0.251
same,glycan array binding signal (z-score),[41],1.93
same,glycan array binding signal (z-score),[42],-1.07
same,glycan array binding signal (z-score),[43],-0.34
same,glycan array binding signal (z-score),[44],-0.574
same,glycan array binding signal (z-score),[45],-0.556
same,glycan array binding signal (z-score),[46],-0.362
same,glycan array binding signal (z-score),[47],-0.26
same,glycan array binding signal (z-score),[48],-1.16
same,glycan array binding signal (z-score),[49],-0.893
same,glycan array binding signal (z-score),[50],-0.066
same,glycan array binding signal (z-score),[51],-0.457
same,glycan array binding signal (z-score),[52],-0.177
same,glycan array binding signal (z-score),[53],0.647
same,glycan array binding signal (z-score),[54],-0.807
same,glycan array binding signal (z-score),[55],-0.348
same,glycan array binding signal (z-score),[56],0.722
same,glycan array binding signal (z-score),[57],-0.023
same,glycan array binding signal (z-score),[58],0.166
same,glycan array binding signal (z-score),[59],-1.08
same,glycan array binding signal (z-score),[60],0.475

# A portion taken from the entries so far, as a working copy:
binder,measurement,setting,value
"MIC2 (Toxoplasma gondii), S8F9G8 (protein) MRLQREAVFGLMFACGMWMWPSEVAGGGWSIVDALRKRYDTSRGGDANGVDTSGVEDVIQSESAIGAAEGCTNQLDICFLIDSSGSIGIQNFRLVKQFLHTFLMVLPIGPEEVNNAVVTYSTDVHLQWDLQSPNAVDKQLAAHAVLDMPYKKGSTNTSDGLKACKQILFTGSRPGREHVPKLVIGMTDGESDSDFRTVRAAKEIRELGGIVTVLAVGHYVKHSECRSMCGCSGTSDDDSPCPLYLRADWGQLATAIKPMLKEVCKTLPQDAICSDWSAWSPCSVSCGDGSQIRTRTEVSAPQPGTPTCPDCPAPMGRTCVEQGGLEEIRECSAGVCAVDAGCGVWGEWSAWSASCGNATRKRERTRYNDPPPQGAGRRCENQDPPVLQEQTEEATLAPCITIPPTPPEWAAWSDCTVTCGGGNRHRVRNALPPGLGSQNGESDESLVSKLWPGTDLRQEEACNTSPCPINATCGQFEEWSTCSVSCGGGLKTRSRNPWNEDQQHGGLSCEQQHPGGRTETITCNPQACPVDERPGEWAEWGECSVTCGDGVRERRRGKSLVEAKFGGRTIDQQNEALPEDLKIKNVEYEPCSYPACGASCTYVWSDWNKCVCPMGYQARHAAVKFDYRNKPCDLPTFETKACSCGETNPVPSEGTTPGAPGATGPEQPNQRPLPEGSDENETPTNEEGEQSKKESGSGIAGAIAGGVIGGLILLGAAGGASYHYYLSSSVGSPSAEIEYEADDGATKVVMEEEKETLVPVDDDSDMWME",glycan array binding signal (z-score),[41],1.93
same,glycan array binding signal (z-score),[42],-1.07
same,glycan array binding signal (z-score),[43],-0.34
